# PubChem BioAssay
# The other results are listed elsewhere or left out. Further columns of the screen follow, without active or inactive calls. For some of these results: The list favours compounds with an active or inconclusive main result.
# Assays:
# PubChem AID 1586 = details: yeast two-hybrid polyglutamine protein interaction, reporter readout; measured here: averaged growth delta OD
# [1] = enhancers of SMN2 over SMN1 splicing, cell-based, SMN2/SMN1 luciferase reporters (AID 1598); details: SMN2 vs SMN1 luciferase splicing reporter cells, at 10 µM; SMN1 luciferase ratio: measured here: SMN1 luciferase reporter average; SMN2 luciferase ratio: measured here: SMN2 luciferase reporter average, stronger effect = higher value
# [2] = protection against mutant huntingtin cytotoxicity, PC12 cells, LDH release (AID 1610); details: PC12 mutant huntingtin toxicity, final LDH at 4 uM, stronger effect = lower value
SMILES,signal change (36 h minus 0 h) (PubChem AID 1586),SMN1 luciferase ratio [1],SMN2 luciferase ratio [1],normalised LDH release [2]
CCCC(=O)O[C@]1(C(=O)CO)CCC2[C@@H]3CCC4=CC(=O)CC[C@]4(C)C3[C@@H](O)C[C@@]21C (some centres not stated),0.439,0.81,0.84,0.6
Cc1ccc(O)cc1,0.127,0.9,1.06,0.863
O=c1ccn([C@@H]2O[C@H](COP(=O)(O)OP(=O)(O)OP(=O)(O)O)[C@@H](O)[C@H]2O)c(=O)[nH]1,0.113,0.96,0.86,0.935
NCC(O)CC(=O)O (configuration not stated),0.06,0.88,0.79,0.991
COc1ccc(OC)c(C(O)CNC(=O)CN)c1 (configuration not stated),0.225,0.96,0.91,1.59
O=C(O)c1cccnc1Nc1cccc(C(F)(F)F)c1,0.035,0.9,0.91,1.08
Cc1ccc(C)c(OCCCC(C)(C)C(=O)O)c1,0.0979,0.95,1.01,0.827
CC(C)CC1NC(=O)CNC1=O (configuration not stated),0.146,0.94,0.99,0.955
COc1ccc(CN(CCN(C)C)c2ccccn2)cc1,0.246,0.85,0.96,0.829
CCC(=O)O[C@]1(C(=O)CCl)[C@@H](C)CC2C3CCC4=CC(=O)C=C[C@]4(C)[C@@]3(F)[C@@H](O)C[C@@]21C (some centres not stated),0.0302,0.88,0.88,0.982
NCCCC[C@H](N[C@@H](CCc1ccccc1)C(=O)O)C(=O)N1CCC[C@H]1C(=O)O,0.312,0.96,0.95,0.898
NC(=O)NC1NC(=O)NC1=O (configuration not stated),0.0912,0.92,0.9,0.996
CCCCc1oc2ccccc2c1C(=O)c1cc(I)c(OCCN(CC)CC)c(I)c1,-0.0135,0.9,0.82,0.952
